# At least one compound was matched to its structure with a doubt left.
# Test system: protein A (a kinase)
# Assay: Inhibition of protein A kinase activity (33P-ATP peptide phosphorylation, filter, scintillation counting)
# Type: biochemical
# Settings: compared with hit compound X; log squared level
# Protocol: The hit compound derivatives synthesized as real compounds through Example 3 were evaluated for ability to inhibit the activity of protein A (a kinase).
# Specifically, […] of protein A was incubated along with 8 mM MOPS (pH 7.0), 0.2 mM EDTA, 10 mM magnesium acetate, 10 μM [gamma-33P]-ATP, and 10 μM […], which is a phosphorylation target peptide. After incubation at room temperature for 40 minutes, the reaction was terminated by adding phosphoric acid to a final concentration of 0.5%. The reaction mixture was spotted onto a filter, then washed four times with 0.425% phosphoric acid for 4 minutes each. After washing once with methanol, the sample was dried and measured for radioactivity (scintillation counting) to assess phosphorylation (i.e., […](p)EDEEE peptide detection).
structure (smiles),measurement,value
C#CC(=O)Nc1cccc(-c2cc(NC(=O)c3cc4c(s3)CCOC4)[nH]n2)c1 [Compound D0157],inhibition superior to the original hit compound (fold),approximately e2 fold
